From patent US20040110161

Chains of the proteins cited; added tags and fusions are not shown. Lines headed by an entry give the natural chain unless they say otherwise; changes in a name come on top. Residues count along the entry.
UniProt P23909: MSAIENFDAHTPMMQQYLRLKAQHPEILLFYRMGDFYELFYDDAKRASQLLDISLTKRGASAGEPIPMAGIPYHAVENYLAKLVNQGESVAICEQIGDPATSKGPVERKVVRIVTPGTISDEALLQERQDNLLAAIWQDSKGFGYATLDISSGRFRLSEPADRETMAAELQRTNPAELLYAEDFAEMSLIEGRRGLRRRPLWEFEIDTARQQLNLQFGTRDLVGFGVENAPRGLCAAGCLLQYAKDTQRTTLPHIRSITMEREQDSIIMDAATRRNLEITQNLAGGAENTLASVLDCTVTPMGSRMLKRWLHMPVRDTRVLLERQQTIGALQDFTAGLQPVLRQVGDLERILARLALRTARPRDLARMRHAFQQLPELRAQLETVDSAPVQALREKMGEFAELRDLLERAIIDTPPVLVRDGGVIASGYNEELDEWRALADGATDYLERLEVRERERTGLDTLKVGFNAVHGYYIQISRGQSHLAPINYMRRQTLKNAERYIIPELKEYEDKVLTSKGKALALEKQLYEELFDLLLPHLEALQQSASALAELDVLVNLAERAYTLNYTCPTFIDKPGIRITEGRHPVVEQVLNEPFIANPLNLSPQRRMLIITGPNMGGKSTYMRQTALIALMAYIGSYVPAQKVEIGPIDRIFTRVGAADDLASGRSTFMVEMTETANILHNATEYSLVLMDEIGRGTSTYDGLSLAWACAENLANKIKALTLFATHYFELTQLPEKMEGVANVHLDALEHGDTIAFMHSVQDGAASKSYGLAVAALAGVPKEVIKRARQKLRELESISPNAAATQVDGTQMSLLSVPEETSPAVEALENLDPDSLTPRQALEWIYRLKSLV
UniProt Q56239, 2-819: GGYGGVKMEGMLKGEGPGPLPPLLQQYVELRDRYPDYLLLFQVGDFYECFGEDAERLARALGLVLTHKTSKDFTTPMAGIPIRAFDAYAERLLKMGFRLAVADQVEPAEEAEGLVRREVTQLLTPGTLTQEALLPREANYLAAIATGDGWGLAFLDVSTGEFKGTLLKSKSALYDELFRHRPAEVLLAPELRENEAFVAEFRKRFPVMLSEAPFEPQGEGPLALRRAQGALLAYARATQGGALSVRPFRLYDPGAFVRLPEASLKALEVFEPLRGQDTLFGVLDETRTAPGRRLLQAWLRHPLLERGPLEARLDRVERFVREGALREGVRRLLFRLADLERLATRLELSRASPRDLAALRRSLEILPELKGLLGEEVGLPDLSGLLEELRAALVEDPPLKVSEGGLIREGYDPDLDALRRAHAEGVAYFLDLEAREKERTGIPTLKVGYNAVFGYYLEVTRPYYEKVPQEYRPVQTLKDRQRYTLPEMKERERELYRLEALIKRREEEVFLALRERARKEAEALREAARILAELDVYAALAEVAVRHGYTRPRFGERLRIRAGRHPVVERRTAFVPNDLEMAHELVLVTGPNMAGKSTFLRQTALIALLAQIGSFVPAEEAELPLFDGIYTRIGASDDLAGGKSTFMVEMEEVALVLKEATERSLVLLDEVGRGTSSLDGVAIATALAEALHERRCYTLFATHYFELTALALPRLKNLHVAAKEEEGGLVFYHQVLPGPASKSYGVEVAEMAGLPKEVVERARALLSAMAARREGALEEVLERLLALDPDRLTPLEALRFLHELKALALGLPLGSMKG
UniProt Q56215: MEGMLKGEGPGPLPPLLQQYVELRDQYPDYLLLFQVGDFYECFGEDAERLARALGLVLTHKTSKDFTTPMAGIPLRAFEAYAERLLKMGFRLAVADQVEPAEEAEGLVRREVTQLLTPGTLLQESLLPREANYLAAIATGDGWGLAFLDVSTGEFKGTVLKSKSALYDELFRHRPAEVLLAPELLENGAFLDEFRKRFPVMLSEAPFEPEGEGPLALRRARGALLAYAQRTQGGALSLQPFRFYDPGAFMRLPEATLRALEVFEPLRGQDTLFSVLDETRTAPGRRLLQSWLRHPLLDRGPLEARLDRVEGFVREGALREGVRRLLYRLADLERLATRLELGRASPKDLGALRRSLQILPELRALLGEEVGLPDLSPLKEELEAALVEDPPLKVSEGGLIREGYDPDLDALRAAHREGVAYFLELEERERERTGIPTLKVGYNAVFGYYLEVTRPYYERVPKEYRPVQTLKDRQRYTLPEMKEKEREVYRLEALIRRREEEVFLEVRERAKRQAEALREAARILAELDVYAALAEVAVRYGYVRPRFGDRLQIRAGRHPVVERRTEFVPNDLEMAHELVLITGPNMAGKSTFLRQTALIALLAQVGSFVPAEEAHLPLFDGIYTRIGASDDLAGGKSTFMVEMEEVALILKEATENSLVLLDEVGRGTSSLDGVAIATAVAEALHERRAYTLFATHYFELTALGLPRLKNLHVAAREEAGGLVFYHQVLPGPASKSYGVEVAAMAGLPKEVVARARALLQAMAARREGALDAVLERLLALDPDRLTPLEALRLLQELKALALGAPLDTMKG

Experiments:
[1] = biological target: MBP-MutS fusion (Cy5-labeled) (Escherichia coli) (UniProt P23909); experiment: SPR; conditions: protein details: N-terminal MBP (pMALc2x-mutS plasmid SEQ:9), label: 5'-biotin, variant of sense(36)/AT
[2] = biological target: MutS (Cy5-labeled) (Escherichia coli) (UniProt P23909); experiment: binding assay; conditions: hydrogel chip fluorescence; purified recombinant protein; label: 5'-biotin, 5'-Cy3; variant of sense/AT perfect duplex
[3] = biological target: MBP-MutS fusion (Cy5-labeled) (Escherichia coli) (UniProt P23909); experiment: binding assay; conditions: hydrogel chip fluorescence; purified recombinant protein; protein details: N-terminal MBP (pMALc2x-mutS plasmid SEQ:9), Cy5; label: 5'-biotin, 5'-Cy3; variant of sense/AT perfect duplex
[4] = biological target: MutS (Cy5-labeled) (Thermus thermophilus) (UniProt Q56239); experiment: binding assay; conditions: hydrogel chip fluorescence, purified recombinant protein, protein details: Cy5, label: 5'-biotin, 5'-Cy3
[5] = biological target: MutS (Cy5-labeled) (Thermus aquaticus) (UniProt Q56215); experiment: binding assay; conditions: hydrogel chip fluorescence; purified recombinant protein; protein details: Cy5, Epicentre; label: 5'-biotin, 5'-Cy3; variant of sense/AT perfect duplex
[6] = biological target: MutS (Cy5-labeled) (Escherichia coli) (UniProt P23909); experiment: EMSA; conditions: 150 mM KCl, 10 mM MgCl2; purified recombinant protein; label: 5'-biotin (SPR), 5'-32P (EMSA)
[7] = text says bound better than AT, value is lower, purified recombinant protein
[8] = detector saturated, variant of sense/AT perfect …

Q: How did the binding signal [1, 7] turn out when “AAGCATACGGAAGTTAAAGTGCGGATCATCTCTAGC / TGGCTAGAGATGATCCGCCCTTTAACTTCCGTATGC [sense(36)/CT]” was run?
A: Its binding signal is 73.6 RU.

Q: With “AAGCATACGGAAGTTAAAGTGCGGATCATCTCTAGC / TGGCTAGAGATGATCCGCACTTTTAACTTCCGTATGC [sense(36)/ins+1T]” as the sequence, how does the binding signal [1, 7] read?
A: Its binding signal is 127 RU.

Q: Which results are given for “AAGCATACGGAAGTTAAAGTGCGGATCATCTCTAGCCA / TGGCTAGAGATGATCCGCACTTTTTAACTTCCGTATGC [sense/ins+2T]”?
A: binding signal [2]: 16.9 fold vs AT; binding signal [3]: 3.37 fold vs AT; binding signal [4, 8]: 7.02 fold vs AT; binding signal [5]: 71.8 fold vs AT

Q: Which binding signal [2] does the source give for “AAGCATACGGAAGTTAAAGTGCGGATCATCTCTAGCCA / TGGCTAGAGATGATCCGCACTTTTAACTTCCGTATGC [sense/ins+1T]” here?
A: Its binding signal is 16.5 fold vs AT.

Q: What about the binding signal [3] of the same sequence?
A: Its binding signal is 3 fold vs AT.

Q: What about the binding signal [4, 8] of the same sequence?
A: Its binding signal is 7.02 fold vs AT.

Q: And the binding signal [5]?
A: Its binding signal is 43.4 fold vs AT.

Q: Which binding signal ([1]; 50 mM KCl, 5 mM MgCl2, purified recombinant protein) does the source give for “AAGCATACGGAAGTTAAAGTGCGGATCATCTCTAGC / TGGCTAGAGATGATCCGCACTTTTTAACTTCCGTATGC [sense(36)/ins+2T]” here?
A: Its binding signal is 1960 RU.

Q: Which results are given for “AAGCATACGGAAGTTAAAGTGCGGATCATCTCTAGCCA / TGGCTAGAGATGATCCGCACTTTTTTAACTTCCGTATGC [sense/ins+3T]”?
A: binding signal [2]: 1.82 fold vs AT; binding signal [3]: 1.56 fold vs AT; binding signal ([4]; variant of sense/AT perfect duplex): 1.32 fold vs AT; binding signal [5]: 1 fold vs AT

Q: Does “AAGCATACGGAAGTTAAAGTGCGGATCATCTCTAGC / TGGCTAGAGATGATCCGCACTTTAACTTCCGTATGC [sense(36)/AT]” bind [6]?
A: Result: binds more weakly

Q: How did the binding signal [1, 7] turn out when “AAGCATACGGAAGTTAAAGTGCGGATCATCTCTAGC / TGGCTAGAGATGATCCGCTCTTTAACTTCCGTATGC [sense(36)/TT]” was run?
A: The binding signal was 71.1 RU.

For some assays here: A weaker result is weaker than the reference pair of the same experiment. For some assays here: For at least one entry, the source does not settle the construct or the ends of the probe. For some assays here: The direction of at least one scale is not stated here.
